{"source": "PubChem BioAssay AID602313", "about": "(National Center for Advancing Translational Sciences (NCATS), 2012)", "note": "Hit rate of the full screen: of about 390,000 compounds, about 760 (0.19%) were called active. Inconclusive results, whose numbers are uncertain, are shown with a selection of clear calls. Calls come from the whole dose curve; as a rule, active = well fitted inhibition curve with a large enough effect; inconclusive = small, poorly fitted or top-dose-only effect; inactive = flat fitted curve, though single readings scatter. A potency beside an inconclusive call is a rough fit, not a confirmed value. Potency is the fitted concentration of half-maximal effect.", "data": [{"experiment": "qHTS for Inhibitors of Vif-A3F Interactions: qHTS; note: nearly all actives have a fitted effect of over 65% in size; for activity, negative = active: % of control where 0% means no effect", "conditions": "HeLa A3F-eYFP + Vif (tagged APOBEC3F with the HIV-1 protein that degrades it), YFP fluorescence increase; series mostly up to 46.1 µM; activity, negative = active: at the top concentration", "in_short": "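HeLa cells stably expressing A3F-eYFP plus Vif, plated and incubated overnight at 37 deg C, then exposed to compounds overnight at 37 deg C. Blocked degradation read as raised yellow fluorescence (Ex 488/Em 500-530).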", "values": [{"smiles": "O=[N+]([O-])c1ccc(N/N=C/c2sc(N3CCOCC3)nc2-c2ccccc2)c(S(=O)(=O)Nc2ccc(Cl)cc2)c1", "Potency": "inconclusive: 0.562 µM [inhibitor, full curve, poor fit]"}, {"smiles": "COc1ccc(C2C3=C(CC(C)(C)CC3=O)Oc3ncn4nc(-c5ccccc5)nc4c32)cc1", "note": "(configuration not stated)", "Potency": "inconclusive: 35.5 µM [inhibitor, single point]"}, {"smiles": "COc1cc(/C=C2\\C(=N)N3N=CSC3=NC2=O)cc(Br)c1OC(=O)c1ccco1", "Potency": "active: 22.4 µM"}, {"smiles": "CC1C/C(=N/Nc2nc3ccccc3[nH]2)CC(C)(C)C1", "note": "(configuration not stated)", "activity, negative = active": "inactive: 0.242%"}, {"smiles": "O=C(NCc1ccc(Cl)cc1)c1ccc2c(c1)NC(=O)C(CS(=O)(=O)Cc1ccccc1Cl)N2", "note": "(configuration not stated)", "Potency": "inconclusive: 35.5 µM [inhibitor, single point]"}, {"smiles": "CCn1c(=O)c2cc(C(=O)NCCCN(C)Cc3ccccc3)sc2c2ccccc21", "Potency": "inconclusive: 35.5 µM [inhibitor, single point]"}, {"smiles": "COc1ccccc1OP(=O)(O)Oc1ccccc1OC", "Potency": "inconclusive: 0.562 µM [inhibitor, full curve, poor fit]"}, {"smiles": "Oc1ccc(CCc2n[nH]c(=S)n2-c2ccc(F)cc2)cc1", "activity, negative = active": "inactive: 4.15%"}, {"smiles": "O=C(CCN1C(=O)/C(=C/c2ccco2)SC1=S)Nc1ccc(O)cc1C(=O)O", "activity, negative = active": "inactive: 10.2%"}, {"smiles": "CCc1ccc(OCCCC(=O)Nc2cccc(C(=O)O)c2)cc1", "activity, negative = active": "inactive: 5.26%"}, {"smiles": "CCCCOc1ccccc1C(=O)Nc1nonc1-c1ccccc1", "activity, negative = active": "inactive: 0.0334%"}, {"smiles": "COc1ccc(Nc2nc(NCCN3CCOCC3)nc(Nc3ccc(OC)cc3)n2)cc1", "activity, negative = active": "inactive: 2.47%"}, {"smiles": "O=C(NC1CCCCC1)c1cccc2c1C(=O)c1ccc(N3CCC(Cc4ccccc4)CC3)cc1S2(=O)=O", "Potency": "inconclusive: 31.6 µM [inhibitor, single point]"}, {"smiles": "CSc1ncccc1C(=O)N1CCCC(C(=O)c2ccc3ccccc3c2)C1", "note": "(configuration not stated)", "activity, negative = active": "inactive: 10%"}, {"smiles": "COc1ccc(NC(=O)c2sc3nc(-c4cccnc4)ccc3c2N)cc1", "Potency": "inconclusive: 5.62 µM [inhibitor, single point]"}, {"smiles": "O=c1c2cc(F)ccc2[nH]c(=S)n1Cc1ccc(F)cc1", "Potency": "inconclusive: 11.2 µM [inhibitor, single point]"}, {"smiles": "S=C1SCN(Cc2ccccc2)CN1Cc1ccco1", "Potency": "inconclusive: 25.1 µM [inhibitor, single point]"}, {"smiles": "CCCc1cc(=O)oc2cc(C)c3c(-c4cccc(OC)c4)coc3c12", "Potency": "inconclusive: 20 µM [inhibitor, single point]"}, {"smiles": "CC(C)(C)C1CCc2c(sc(NC(=O)CCC(=O)O)c2C(=O)Nc2ccccc2C(F)(F)F)C1", "note": "(configuration not stated)", "activity, negative = active": "inactive: -21.6%"}, {"smiles": "FC(F)(F)c1cccc(N2CCN(Cc3nnc(-c4ccc5c(c4)OCO5)o3)CC2)c1", "activity, negative = active": "inactive: 1.08%"}, {"smiles": "CC1CCCC(C)N1/N=C/c1ccccc1C(=O)O", "note": "(configuration not stated)", "Potency": "inconclusive: 35.5 µM [inhibitor, single point]"}, {"smiles": "Cn1cc(/C=C(\\C#N)C(=O)Nc2ncc(Cc3ccc(Cl)cc3)s2)c2ccccc21", "Potency": "inconclusive: 11.2 µM [inhibitor, single point]"}, {"smiles": "O=C(NCC(=O)N(c1ccc(F)cc1)C(C(=O)NC1CCCCC1)c1cccnc1)c1ccco1", "note": "(configuration not stated)", "Potency": "inconclusive: 15.8 µM [inhibitor, single point]"}, {"smiles": "CCC(CC)Nc1ccc(C(CC(N)=O)NC(=O)Cc2ccc(Br)cc2)cc1[N+](=O)[O-]", "note": "(configuration not stated)", "Potency": "inconclusive: 35.5 µM [inhibitor, single point]"}, {"smiles": "COc1cccc(CNC(=O)c2ccc(-c3nc(CS(=O)(=O)c4ccccc4)c(C)o3)cc2)c1", "activity, negative = active": "inactive: -5.96%"}, {"smiles": "CCc1ccccc1Nc1cc(C(=O)NC2CCC(C)CC2)c2ccccc2n1", "note": "(configuration not stated)", "Potency": "inconclusive: 20 µM [inhibitor, single point]"}, {"smiles": "O=C(/C=C/c1ccc(O)c(O)c1)c1ccccc1O", "Potency": "inconclusive: 28.2 µM [inhibitor, single point]"}, {"smiles": "Cc1cccc(C(=O)NC(=S)NCc2ccccc2)c1", "Potency": "inconclusive: 17.8 µM [inhibitor, partial curve, poor fit]"}, {"smiles": "CN(C)CC1CCC/C(=C\\c2ccc(OC(=O)/C=C/c3ccccc3)cc2)C1=O", "note": "(configuration not stated)", "Potency": "inconclusive: 2.51 µM [inhibitor, partial curve, poor fit]"}, {"smiles": "CC(C)(C)N1C(=O)c2ccc(C(=O)NCc3ccco3)cc2C1=O", "activity, negative = active": "inactive: -7.23%"}, {"smiles": "CCOC(=O)c1c(NC(=S)Nc2ccccc2)sc(C)c1C", "activity, negative = active": "inactive: -4.72%"}, {"smiles": "Cc1cc(Cl)ccc1OCC(=O)N(Cc1ccco1)c1c(N)n(Cc2ccccc2)c(=O)[nH]c1=O", "Potency": "inconclusive: 22.4 µM [inhibitor, single point]"}, {"smiles": "Cc1ccc(Cn2c(CNS(=O)(=O)c3ccc(Cl)s3)nc3cccnc32)cc1", "Potency": "inconclusive: 31.6 µM [inhibitor, single point]"}, {"smiles": "COc1cccc(C(=O)O/N=C(\\C)c2cnccn2)c1", "Potency": "inconclusive: 22.4 µM [inhibitor, single point]"}, {"smiles": "C=CCOC(=O)C1=C(C)OC(N)=C(C#N)C1c1ccoc1", "note": "(configuration not stated)", "Potency": "inconclusive: 28.2 µM [inhibitor, single point]"}, {"smiles": "COc1ccc(OC)c(CC(=O)Nc2ccc3c(c2)CCC3)c1", "Potency": "inconclusive: 22.4 µM [inhibitor, single point]"}, {"smiles": "COc1ccc(C(=O)Nc2c(C(=O)c3ccccc3)oc3ccccc23)cc1", "activity, negative = active": "inactive: 4%"}, {"smiles": "CCOC(=O)c1c(Nc2ccc(Cl)cc2)sc(/C=C2\\C=Nc3ccccc32)c1O", "Potency": "active: 7.08 µM"}, {"smiles": "COc1cccc(/C=N/Nc2cc(-n3nc(C)cc3-c3ccccc3)ncn2)c1O", "Potency": "inconclusive: 3.98 µM [inhibitor, single point]"}, {"smiles": "CSc1cccc(NC(=O)CC(C)n2ccnc2)c1", "note": "(configuration not stated)", "Potency": "inconclusive: 2.82 µM [inhibitor, single point]"}, {"smiles": "Cc1ccc2c(=O)c(C(=O)c3ccc(F)cc3)cn(CC(=O)NCc3ccccc3Cl)c2n1", "Potency": "inconclusive: 35.5 µM [inhibitor, single point]"}, {"smiles": "O=C(CSc1n[nH]c(=O)n1-c1ccccc1)Nc1ccccc1", "Potency": "inconclusive: 7.08 µM [inhibitor, full curve, poor fit]"}, {"smiles": "Cc1cc(C)c2c(N)c(C(=O)Nc3ncc(C)s3)sc2n1", "activity, negative = active": "inactive: 3.03%"}, {"smiles": "CC(C)(C)c1ccc(-c2csc(NC(=O)CN3C(=O)NC4(CCCCC4)C3=O)n2)cc1", "Potency": "inconclusive: 11.2 µM [inhibitor, partial curve]"}, {"smiles": "O=C(NC(=S)N1CCN(c2ccccc2)CC1)c1c(F)cccc1F", "Potency": "inconclusive: 22.4 µM [inhibitor, single point]"}, {"smiles": "O=C(Nc1nnc(-c2cccnc2)o1)c1cccc(Cl)c1", "Potency": "inconclusive: 31.6 µM [inhibitor, single point]"}, {"smiles": "O=c1oc2ccccc2cc1-c1nc(-c2cccs2)cs1", "Potency": "inconclusive: 15.8 µM [inhibitor, single point]"}, {"smiles": "N#C/C(=C\\c1ccc(-c2ccc([N+](=O)[O-])cc2)o1)C(=O)Nc1nc(-c2cccs2)cs1", "Potency": "inconclusive: 2.51 µM [inhibitor, full curve, poor fit]"}, {"smiles": "Nc1ccccc1Sc1nc2ccccc2[nH]1", "Potency": "inconclusive: 11.2 µM [inhibitor, single point]"}, {"smiles": "CCOC(=O)c1c(NC(=O)c2ccc(S(=O)(=O)N3CCCC(C)C3)cc2)sc2c1CCN(C(C)C)C2", "note": "(configuration not stated)", "Potency": "inconclusive: 31.6 µM [inhibitor, single point]"}, {"smiles": "O=C1c2cccc3c([N+](=O)[O-])ccc(c23)C(=O)N1c1ccc(Cl)cn1", "Potency": "inconclusive: 3.55 µM [inhibitor, partial curve, poor fit]"}, {"smiles": "CCCOc1ccc(CN(C(=O)c2nc(SC(C)C)ncc2Cl)C2CCS(=O)(=O)C2)cc1", "note": "(configuration not stated)", "activity, negative = active": "inactive: 0.985%"}, {"smiles": "CCC(C)(C)NC(=O)C(c1cccc(OC)c1OC)N(Cc1ccccc1)C(=O)CCC(=O)Nc1cc(C)on1", "note": "(configuration not stated)", "Potency": "inconclusive: 2.82 µM [inhibitor, partial curve, poor fit]"}, {"smiles": "CCOc1ccccc1N(C)C(=O)c1ccc2c(=O)n3c(nc2c1)CCCCC3", "activity, negative = active": "inactive: -8.71%"}, {"smiles": "CCN(CC)CCOC(=O)c1ccc(N/C=C(/C#N)c2nc(-c3ccc4c(c3)OCO4)cs2)cc1", "Potency": "inconclusive: 35.5 µM [inhibitor, single point]"}, {"smiles": "S=c1[nH]cnc2scc(-c3ccc(Br)cc3)c12", "Potency": "inconclusive: 5.62 µM [inhibitor, single point]"}, {"smiles": "Cc1ccc2nc(N3C(=O)C(O)=C(C(=O)c4ccc(C)o4)C3c3ccco3)sc2c1", "note": "(configuration not stated)", "activity, negative = active": "inactive: 2.07%"}, {"smiles": "CC(=O)N1CCC(C(=O)Nc2ccccc2)(N(Cc2ccccc2)C(=O)c2cccnc2)CC1", "activity, negative = active": "inactive: -5.94%"}, {"smiles": "CCc1ccc(S(=O)(=O)/N=C2/C=C(Sc3ncn[nH]3)C(=O)c3ccccc32)cc1", "Potency": "inconclusive: 22.4 µM [inhibitor, single point]"}, {"smiles": "O=C(O)CC1CCC(=C(Cl)Cl)C1", "note": "(configuration not stated)", "activity, negative = active": "inactive: -23.9%"}, {"smiles": "Cc1ccc(-c2csc(/C(C#N)=C(\\O)CCl)n2)cc1", "activity, negative = active": "inactive: -11.4%"}, {"smiles": "CCCCCC(=O)N/N=C/c1ccc([N+](=O)[O-])o1", "Potency": "inconclusive: 35.5 µM [inhibitor, single point]"}, {"smiles": "CC(C)c1cccc(C(C)C)c1OC(=O)[C@H]1OC(c2ccc(Br)cc2)=C[C@@H]1c1ccc(Br)cc1", "Potency": "inconclusive: 20 µM [inhibitor, single point]"}, {"smiles": "CCn1cc(C(=O)NCC(OC)OC)c(=O)c2cc(S(=O)(=O)N3CCOCC3)ccc21", "activity, negative = active": "inactive: -5.73%"}, {"smiles": "C(=C\\c1nccc2c1[nH]c1ccccc12)/c1ccccc1", "Potency": "inconclusive: 14.1 µM [inhibitor, partial curve, poor fit]"}, {"smiles": "CCn1c2ccccc2c2cc(NC(=O)c3cc(C)on3)ccc21", "activity, negative = active": "inactive: 0.672%"}, {"smiles": "COC(=O)c1c(-c2cc(C)ccc2C)csc1NC(=O)C1CC=CCC1C(=O)O", "note": "(configuration not stated)", "Potency": "inconclusive: 6.31 µM [inhibitor, single point]"}]}]}
